PubChem BioAssay AID1224830 | NIAID | 2016

Assay: 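Regulators of TLR4 signalling towards TNF-alpha in macrophage-like cells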 (primary screen)
Cells: human THP-1 monocytic leukaemia cells, TNF dual-luciferase reporter clone, PMA-differentiated to macrophage-like cells
Knock-down reagent: siRNA pool against human genes, 50 nM
Duration: LPS for 4 h, given about 3 days after siRNA transfection
Treatment: bacterial LPS (TLR4 ligand), 10 ng/ml
Read-out: 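Ratio of firefly to renilla light, scaled to the plate median and expressed as a robust z-score per replicate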
Reading the numbers: TNF reporter robust z-score: higher = stronger TNF reporter response to LPS
Hit rule: 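a well is active when its z-score exceeds 2.8 or falls below -1.5; control wells carry no call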
The whole screen tested about 18,000 reagents; below is a random part of them. About 2,900 of them (16%) count as active. 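Calls are made per well; low scores hint the gene aids the LPS response, high scores that it dampens it.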 Entries without a mark were called inactive. Repeated entries: four replicate wells of each siRNA pool.

For ERMP1 the deposit lists TNF reporter robust z-score 0.3. With knock-down of ERMP1 the results were TNF reporter robust z-score 1.84. For ERMP1, the values are TNF reporter robust z-score 0.37. ERMP1 showed TNF reporter robust z-score 1.05. For WT1, the values are TNF reporter robust z-score -0.05. Against WT1, the values are TNF reporter robust z-score -0.09.

After knock-down of WT1 the results were TNF reporter robust z-score 0.03. For WT1, the values are TNF reporter robust z-score 0.61. Silencing of DHDDS gave: TNF reporter robust z-score -0.73. With knock-down of DHDDS, the screen gave TNF reporter robust z-score -0.19. With knock-down of DHDDS, the screen gave TNF reporter robust z-score -0.4. Knock-down of DHDDS came out at: TNF reporter robust z-score -0.07.

For POTEB3, the values are TNF reporter robust z-score -1.08. POTEB3 showed TNF reporter robust z-score -0.22. After knock-down of POTEB3, the screen gave TNF reporter robust z-score 0.09. POTEB3 gave TNF reporter robust z-score -0.43. Knock-down of TRPM2 gave: TNF reporter robust z-score 0.18. TRPM2 showed TNF reporter robust z-score 0.99.

For TRPM2, the values are TNF reporter robust z-score 0.36. TRPM2 showed TNF reporter robust z-score -0.29.

4 entries from above, reformatted:
{"gene knocked down": "WT1", "TNF reporter robust z-score": -0.09}
{"gene knocked down": "WT1", "TNF reporter robust z-score": 0.03}
{"gene knocked down": "WT1", "TNF reporter robust z-score": 0.61}
{"gene knocked down": "DHDDS", "TNF reporter robust z-score": -0.73}

Further reagents:
With knock-down of FER1L6 the results were TNF reporter robust z-score 0.42. Depletion of FER1L6 resulted in: TNF reporter robust z-score 0.11. FER1L6 gave TNF reporter robust z-score 0.21. For FER1L6 the deposit lists TNF reporter robust z-score -0.69. After knock-down of CHRNA3 the results were TNF reporter robust z-score -0.07. For CHRNA3 the deposit lists TNF reporter robust z-score -0.28.

Against CHRNA3, the values are TNF reporter robust z-score 0.02. CHRNA3 gave TNF reporter robust z-score -0.97. Against MMP7, the values are TNF reporter robust z-score 1.93. MMP7 gave TNF reporter robust z-score 2.03. Against MMP7, the values are TNF reporter robust z-score 0.87. Silencing of MMP7 resulted in: TNF reporter robust z-score 3.57 (active).
